In the data set the test system is patients with Type 2 diabetes mellitus (T2DM). Kind of data set: Average daily insulin glargine dose at Week 30 (Example 2). Type of data set: in vivo, human.

We go through 1 substance from patent publication US12186374B2 (Sanofi-Aventis Deutschland GmbH, priority 2014, dated 2025).

Some results come without the dose or concentration used.

Take “Gly(A21)-Arg(B31)-Arg(B32)-human insulin [Insulin Glargine]”: the “Mean daily insulin glargine dose at Week 30” value (Example 2) turned out to be 40.46 U. Besides, the “Average daily insulin glargine dose, Week 30, LS Mean (SE)” value (MMRM, mITT population) was 40.46 (0.701) U. Besides, for the setting “mITT population”, the “Average daily insulin glargine dose, Week 30, Mean (SD)” value is on record as 40.34 (14.85) U and the “Average daily insulin glargine dose, Week 30, Median” value amounted to 40.00 U.
